These are yes or no findings as the source states them, for the method shown. For part of these data: In cells and extracts the contact can be indirect. Some entries that bind do so weakly or less than the wild type.
Key:
[1] = target: T1, PDCD5 of the in vitro binding assay (UniProt O14737); assay: in vitro binding assay; Supplementary Fig. 10c; format not told in the text shown
T1 sequence: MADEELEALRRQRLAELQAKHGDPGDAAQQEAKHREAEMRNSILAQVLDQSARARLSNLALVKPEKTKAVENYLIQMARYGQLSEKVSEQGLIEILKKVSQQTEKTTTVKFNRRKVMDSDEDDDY

Amino acid sequences for entries named in this document (tags omitted).
UniProt P84022: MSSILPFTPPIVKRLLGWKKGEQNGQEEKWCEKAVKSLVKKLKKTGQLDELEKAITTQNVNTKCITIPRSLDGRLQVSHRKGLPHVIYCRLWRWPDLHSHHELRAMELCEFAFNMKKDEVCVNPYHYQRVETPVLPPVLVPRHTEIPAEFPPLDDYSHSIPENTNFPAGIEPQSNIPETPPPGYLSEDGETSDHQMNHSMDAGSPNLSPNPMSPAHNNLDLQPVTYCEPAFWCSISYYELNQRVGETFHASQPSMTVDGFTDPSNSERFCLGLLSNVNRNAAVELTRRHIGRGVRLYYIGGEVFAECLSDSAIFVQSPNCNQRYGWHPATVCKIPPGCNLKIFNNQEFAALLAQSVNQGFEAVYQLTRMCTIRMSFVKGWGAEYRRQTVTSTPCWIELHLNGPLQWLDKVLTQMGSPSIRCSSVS
UniProt P35222: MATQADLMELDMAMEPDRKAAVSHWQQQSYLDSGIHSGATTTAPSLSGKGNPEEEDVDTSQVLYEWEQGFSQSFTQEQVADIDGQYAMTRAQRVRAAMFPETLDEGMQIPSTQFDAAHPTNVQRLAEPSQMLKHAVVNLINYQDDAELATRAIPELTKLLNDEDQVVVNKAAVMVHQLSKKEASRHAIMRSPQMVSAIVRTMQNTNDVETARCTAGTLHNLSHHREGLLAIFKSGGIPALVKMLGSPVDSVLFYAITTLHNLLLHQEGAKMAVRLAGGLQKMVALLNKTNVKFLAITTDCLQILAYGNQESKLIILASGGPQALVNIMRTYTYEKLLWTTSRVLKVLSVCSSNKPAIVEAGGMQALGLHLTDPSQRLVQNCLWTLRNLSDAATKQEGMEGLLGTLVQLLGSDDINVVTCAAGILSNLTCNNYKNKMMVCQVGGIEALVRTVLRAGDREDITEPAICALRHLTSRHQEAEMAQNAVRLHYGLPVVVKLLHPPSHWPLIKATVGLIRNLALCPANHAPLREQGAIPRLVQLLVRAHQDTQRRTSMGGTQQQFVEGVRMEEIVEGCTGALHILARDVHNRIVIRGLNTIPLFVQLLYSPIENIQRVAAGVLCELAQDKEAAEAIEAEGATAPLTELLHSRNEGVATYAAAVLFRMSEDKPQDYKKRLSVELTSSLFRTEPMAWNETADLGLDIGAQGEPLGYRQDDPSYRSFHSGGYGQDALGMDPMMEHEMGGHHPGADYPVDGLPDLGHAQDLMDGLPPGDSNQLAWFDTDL
UniProt Q02248: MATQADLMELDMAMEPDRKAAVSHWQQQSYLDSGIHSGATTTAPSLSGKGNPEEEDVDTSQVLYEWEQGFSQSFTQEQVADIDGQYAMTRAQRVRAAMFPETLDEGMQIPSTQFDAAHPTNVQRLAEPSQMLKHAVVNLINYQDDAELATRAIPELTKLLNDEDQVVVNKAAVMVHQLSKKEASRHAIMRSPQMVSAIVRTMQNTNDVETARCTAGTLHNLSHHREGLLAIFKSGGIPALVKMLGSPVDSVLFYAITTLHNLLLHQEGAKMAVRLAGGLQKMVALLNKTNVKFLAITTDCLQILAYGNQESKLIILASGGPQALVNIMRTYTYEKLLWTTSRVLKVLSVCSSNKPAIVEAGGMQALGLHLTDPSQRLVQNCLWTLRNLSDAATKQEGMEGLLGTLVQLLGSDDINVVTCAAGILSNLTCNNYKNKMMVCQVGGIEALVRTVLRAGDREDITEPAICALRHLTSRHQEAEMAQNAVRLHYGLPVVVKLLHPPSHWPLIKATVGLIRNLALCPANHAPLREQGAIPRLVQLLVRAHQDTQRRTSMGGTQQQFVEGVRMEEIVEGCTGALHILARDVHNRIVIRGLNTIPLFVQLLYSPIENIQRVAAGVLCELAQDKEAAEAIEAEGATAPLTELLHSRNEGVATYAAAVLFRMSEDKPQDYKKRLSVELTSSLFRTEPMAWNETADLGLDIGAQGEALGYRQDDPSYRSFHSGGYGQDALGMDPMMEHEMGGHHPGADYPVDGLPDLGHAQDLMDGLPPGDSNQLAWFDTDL

[2] = target: T2, programmed cell death 5 (PDCD5), endogenous in C22 mouse club cells (mouse (endogenous in C22)) (UniProt P56812); assay: co-IP; endogenous proteins, nuclear extracts of C22 cells, with or without TGF-β1; protein A/G agarose beads; immunoblot
T2 sequence: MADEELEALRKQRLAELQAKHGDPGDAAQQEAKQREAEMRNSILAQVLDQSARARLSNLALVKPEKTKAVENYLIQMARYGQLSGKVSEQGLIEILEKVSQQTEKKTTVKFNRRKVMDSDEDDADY

Substance | binding [1] | binding [2]
Smad3 of the in vitro binding assay (from UniProt P84022 1-425) | no binding | 
β-catenin of the in vitro binding assay (from UniProt P35222 1-781) | binds | 
β-catenin, endogenous in mouse club cells (from UniProt Q02248 1-781) |  | binds

Source: PMC8134485
